Results from doi:10.1101/306316.
Results are given in words; binding and its absence hold for the method and conditions named. Binding seen in cells or lysates may run through a third protein. Some entries that bind do so weakly or less than the wild type.

Biological target: T1, PMPCB, the beta subunit of the MPP (MPPβ) (human (endogenous in fibroblasts)) (UniProt O75439)
T1 sequence: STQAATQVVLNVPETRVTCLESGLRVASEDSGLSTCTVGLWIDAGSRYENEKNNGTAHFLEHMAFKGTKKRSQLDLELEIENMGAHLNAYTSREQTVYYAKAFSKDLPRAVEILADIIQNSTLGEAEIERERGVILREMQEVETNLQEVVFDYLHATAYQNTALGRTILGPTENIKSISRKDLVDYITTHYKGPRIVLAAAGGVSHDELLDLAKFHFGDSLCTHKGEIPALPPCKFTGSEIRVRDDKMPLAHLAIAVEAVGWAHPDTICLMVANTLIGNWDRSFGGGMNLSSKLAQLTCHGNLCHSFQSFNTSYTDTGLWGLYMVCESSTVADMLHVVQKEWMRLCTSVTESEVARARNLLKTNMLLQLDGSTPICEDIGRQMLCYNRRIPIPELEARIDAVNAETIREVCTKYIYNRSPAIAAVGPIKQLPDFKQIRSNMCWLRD
Assay: co-IP

- binding: binds
B1: LONP1 (enzyme, UniProt P36776 68-959)
chain: FWEASSRGGGAFSGGEDASEGGAEEGAGGAGGSAGAGEGPVITALTPMTIPDVFPHLPLIAITRNPVFPRFIKIIEVKNKKLVELLRRKVRLAQPYVGVFLKRDDSNESDVVESLDEIYHTGTFAQIHEMQDLGDKLRMIVMGHRRVHISRQLEVEPEEPEAENKHKPRRKSKRGKKEAEDELSARHPAELAMEPTPELPAEVLMVEVENVVHEDFQVTEEVKALTAEIVKTIRDIIALNPLYRESVLQMMQAGQRVVDNPIYLSDMGAALTGAESHELQDVLEETNIPKRLYKALSLLKKEFELSKLQQRLGREVEEKIKQTHRKYLLQEQLKIIKKELGLEKDDKDAIEEKFRERLKELVVPKHVMDVVDEELSKLGLLDNHSSEFNVTRNYLDWLTSIPWGKYSNENLDLARAQAVLEEDHYGMEDVKKRILEFIAVSQLRGSTQGKILCFYGPPGVGKTSIARSIARALNREYFRFSVGGMTDVAEIKGHRRTYVGAMPGKIIQCLKKTKTENPLILIDEVDKIGRGYQGDPSSALLELLDPEQNANFLDHYLDVPVDLSKVLFICTANVTDTIPEPLRDRMEMINVSGYVAQEKLAIAERYLVPQARALCGLDESKAKLSSDVLTLLIKQYCRESGVRNLQKQVEKVLRKSAYKIVSGEAESVEVTPENLQDFVGKPVFTVERMYDVTPPGVVMGLAWTAMGGSTLFVETSLRRPQDKDAKGDKDGSLEVTGQLGEVMKESARIAYTFARAFLMQHAPANDYLVTSHIHLHVPEGATPKDGPSAGCTIVTALLSLAMGRPVRQNLAMTGEVSLTGKILPVGGIKEKTIAAKRAGVTCIVLPAENKKDFYDLAAFITEGLEVHFVEHYREIFDIAFPDEQAEALAVER
